The other results are listed elsewhere or left out. Repeats are few or missing, and single values can be far off.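 Cells were imaged in 1,536-well plates, and nuclei stained with an antibody against cleaved PARP were counted against all DNA-stained nuclei to give the apoptosis fraction. Screening doses were chosen to leave most cells alive, and resting and induced cleaved-PARP levels differ strongly between cell lines.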
Tests used:
Experiment in all cases: cleaved PARP positive nuclei fraction relative to DMSO control; melanoma cells; higher = more apoptosis
Conditions in all cases: library dose: low library concentration; 72 h
COLO792 = test system: COLO792
COLO800 = test system: COLO800
COLO829 = test system: COLO829
G361 = test system: G361
IPC-298 = test system: IPC-298
IST-MEL1 = test system: IST-MEL1
LB2518-MEL = test system: LB2518-MEL
LOXIMVI = test system: LOXIMVI
MEL-HO = test system: MEL-HO

| SMILES | cleaved PARP positive nuclei fraction (COLO792) [%] | cleaved PARP positive nuclei fraction (COLO800) [%] | cleaved PARP positive nuclei fraction (COLO829) [%] | cleaved PARP positive nuclei fraction (G361) [%] | cleaved PARP positive nuclei fraction (IPC-298) [%] | cleaved PARP positive nuclei fraction (IST-MEL1) [%] | cleaved PARP positive nuclei fraction (LB2518-MEL) [%] | cleaved PARP positive nuclei fraction (LOXIMVI) [%] | cleaved PARP positive nuclei fraction (MEL-HO) [%] |
| --- | --- | --- | --- | --- | --- | --- | --- | --- | --- |
| COc1ccc(C2=N[C@@H](c3ccc(Cl)cc3)[C@@H](c3ccc(Cl)cc3)N2C(=O)N2CCNC(=O)C2)c(OC(C)C)c1 [Nutlin-3] + CN(NC(=O)CC(=O)NN(C)C(=S)c1ccccc1)C(=S)c1ccccc1 [STA4783] (first compound 0.1 µM, partner dose 0.006 µM) | 338 | 115 | 400 | 131 | 100 | 46.8 | 196 | 195 | 107 |
| Cn1cnc2c(F)c(Nc3ccc(Br)cc3Cl)c(C(=O)NOCCO)cc21 [selumetinib] + NC(=O)Nc1cc(-c2cccc(F)c2)sc1C(=O)N[C@H]1CCCNC1 [AZD7762] (first compound 0.015 µM, partner dose 0.02 µM) | 67.6 | 111 | 57 | 115 | 73.2 | 50 | 162 | 49.7 | 61.7 |
| C[C@@H](N)c1ccc(C(=O)Nc2ccnc3[nH]ccc23)cc1 + CN(NC(=O)CC(=O)NN(C)C(=S)c1ccccc1)C(=S)c1ccccc1 [STA4783] (first compound 0.4 µM, partner dose 0.006 µM) | 233 | 16.7 | 132 | 114 | 166 | 483 | 196 | 107 | 96.1 |
| COc1ccc(C2=N[C@@H](c3ccc(Cl)cc3)[C@@H](c3ccc(Cl)cc3)N2C(=O)N2CCNC(=O)C2)c(OC(C)C)c1 [Nutlin-3] + OCCn1cc(-c2cnc3nnn(Cc4ccc5ncccc5c4)c3n2)cn1 [PF04217903] (first compound 0.1 µM, partner dose 1 µM) | 97.1 | 77.4 | 125 | 66.8 | 44 | 82.8 | 278 | 105 | 166 |
| CC1(C)CCC(c2ccc(Cl)cc2)=C(CN2CCN(c3ccc(C(=O)NS(=O)(=O)c4ccc(N[C@H](CCN5CCOCC5)CSc5ccccc5)c(S(=O)(=O)C(F)(F)F)c4)cc3)CC2)C1 + O=C(O)c1ccc(-c2c[nH]c3ncc(-c4ccccc4)cc23)cc1C1CCCC1 [GSK650394] (first compound 0.4 µM, partner dose 0.16 µM) | 792 | 87.1 | 57.9 | 68.6 | 44.1 | 130 | 111 | 92.3 | 79 |
| C[C@]1(O)C[C@@H](c2nc(-c3ccc4ccc(-c5ccccc5)nc4c3)c3c(N)nccn32)C1 + Cc1ccc(NC(=O)c2cccc(N(C)C)c2)cc1NC(=O)c1ccc(O)cc1 [ZM336372] (first compound 0.4 µM, partner dose 2 µM) | 131 | 105 | 38.4 | 133 | 22.7 | 137 | 41.1 | 102 | 82.7 |
| CC1(C)CCC(c2ccc(Cl)cc2)=C(CN2CCN(c3ccc(C(=O)NS(=O)(=O)c4ccc(N[C@H](CCN5CCOCC5)CSc5ccccc5)c(S(=O)(=O)C(F)(F)F)c4)cc3)CC2)C1 + Cc1cc(N2CCOCC2)cc2[nH]c(-c3c(NC[C@@H](O)c4cccc(Cl)c4)cc[nH]c3=O)nc12 [BMS536924] (first compound 0.4 µM, partner dose 0.2 µM) | 541 | 281 | 75.2 | 152 | 96.5 | 95.7 | 108 | 137 | 43 |
| CCCCCCCCc1ccc(CCC(N)(CO)CO)cc1 [fingolimod] + O=C(O)c1ccc(-c2c[nH]c3ncc(-c4ccccc4)cc23)cc1C1CCCC1 [GSK650394] (first compound 2 µM, partner dose 0.16 µM) | 58.1 | 104 | 111 | 114 | 139 | 60.6 | 92.8 | 42.7 | 104 |
| NC1(c2ccc(-c3nc4ccn5c(=O)[nH]nc5c4cc3-c3ccccc3)cc2)CCC1 + CN(NC(=O)CC(=O)NN(C)C(=S)c1ccccc1)C(=S)c1ccccc1 [STA4783] (first compound 0.4 µM, partner dose 0.006 µM) | 207 | 239 | 204 | 73.4 | 101 | 58.1 | 160 | 160 | 93.9 |
| Cn1cnc2c(F)c(Nc3ccc(Br)cc3Cl)c(C(=O)NOCCO)cc21 [selumetinib] + COc1cc(Nc2ncc(F)c(Nc3ccc4c(n3)NC(=O)C(C)(C)O4)n2)cc(OC)c1OC [Tamatinib] (first compound 0.015 µM, partner dose 0.4 µM) | 238 | 76.3 | 259 | 150 | 160 | 73.8 | 188 | 328 | 70.7 |
| Cn1sc(=O)n(Cc2ccccc2)c1=O + OCCn1cc(-c2cnc3nnn(Cc4ccc5ncccc5c4)c3n2)cn1 [PF04217903] (first compound 0.4 µM, partner dose 1 µM) | 132 | 88.4 | 103 | 157 | 89.2 | 29.7 | 41.9 | 102 | 73.9 |
| CCCCCCCCc1ccc(CCC(N)(CO)CO)cc1 [fingolimod] + O=C(Nc1cccc(Cl)c1)Nc1ncc(CCNc2ncnc3ccsc23)s1 [SNS314] (first compound 2 µM, partner dose 0.0008 µM) | 139 | 77.5 | 89.2 | 164 | 91 | 78.4 | 129 | 35.1 | 70.9 |
| Cn1sc(=O)n(Cc2ccccc2)c1=O + C=CCn1c(=O)c2cnc(Nc3ccc(N4CCN(C)CC4)cc3)nc2n1-c1cccc(C(C)(C)O)n1 [MK1775] (first compound 0.4 µM, partner dose 0.02 µM) | 63.4 | 107 | 89.9 | 88.7 | 178 | 41 | 103 | 40.4 | 248 |
| C[C@@H](N)c1ccc(C(=O)Nc2ccnc3[nH]ccc23)cc1 + O=C(Nc1cccc(Cl)c1)Nc1ncc(CCNc2ncnc3ccsc23)s1 [SNS314] (first compound 0.4 µM, partner dose 0.0008 µM) | 141 | 71.8 | 143 | 131 | 94.6 | 51 | 175 | 81.9 | 284 |
| CN(c1ncccc1CNc1nc(Nc2ccc3c(c2)CC(=O)N3)ncc1C(F)(F)F)S(C)(=O)=O + CN(C)S(=O)(=O)c1ccc2c(c1)/C(=C/c1cc3c([nH]1)CCCC3)C(=O)N2 [SU6656] (first compound 0.08 µM, partner dose 0.4 µM) | 122 | 27.3 | 267 | 66.2 | 100 | 105 | 232 | 89.7 | 255 |
| CN(c1ncccc1CNc1nc(Nc2ccc3c(c2)CC(=O)N3)ncc1C(F)(F)F)S(C)(=O)=O + Cc1ccc(NC(=O)c2cccc(N(C)C)c2)cc1NC(=O)c1ccc(O)cc1 [ZM336372] (first compound 0.08 µM, partner dose 2 µM) | 130 | 93.8 | 148 | 134 | 143 | 136 | 93.7 | 55.8 | 81.6 |
| CS(=O)(=O)c1ccc(C(=O)Nc2ccc(Cl)c(-c3ccccn3)c2)c(Cl)c1 [vismodegib] + O=C(Nc1cccc(Cl)c1)Nc1ncc(CCNc2ncnc3ccsc23)s1 [SNS314] (first compound 1 µM, partner dose 0.0008 µM) | 90.7 | 108 | 72.5 | 93.9 | 32.2 | 172 | 141 | 60.9 | 63.6 |
| CCCCCCCCc1ccc(CCC(N)(CO)CO)cc1 [fingolimod] + CN(NC(=O)CC(=O)NN(C)C(=S)c1ccccc1)C(=S)c1ccccc1 [STA4783] (first compound 2 µM, partner dose 0.006 µM) | 83.6 | 108 | 163 | 91 | 101 | 307 | 25 | 49.3 | 170 |
| COc1ccc(C2=N[C@@H](c3ccc(Cl)cc3)[C@@H](c3ccc(Cl)cc3)N2C(=O)N2CCNC(=O)C2)c(OC(C)C)c1 [Nutlin-3] + NC(=O)Nc1cc(-c2cccc(F)c2)sc1C(=O)N[C@H]1CCCNC1 [AZD7762] (first compound 0.1 µM, partner dose 0.02 µM) | 51.8 | 106 | 75.9 | 69 | 81.9 | 18.3 | 85.2 | 54.6 | 61.5 |
| C[C@@H](N)c1ccc(C(=O)Nc2ccnc3[nH]ccc23)cc1 + CC(C)(C)c1cnc(CSc2cnc(NC(=O)C3CCNCC3)s2)o1 [SNS-032] (first compound 0.4 µM, partner dose 0.01 µM) | 259 | 46.9 | 162 | 95.3 | 178 | 152 | 106 | 517 | 450 |
| C[C@@H](N)c1ccc(C(=O)Nc2ccnc3[nH]ccc23)cc1 + CN(C)S(=O)(=O)c1ccc2c(c1)/C(=C/c1cc3c([nH]1)CCCC3)C(=O)N2 [SU6656] (first compound 0.4 µM, partner dose 0.4 µM) | 126 | 47.2 | 136 | 72.2 | 61.4 | 54.8 | 25.8 | 56 | 165 |
| CCN(CC)CCNC(=O)c1c(C)[nH]c(/C=C2\C(=O)Nc3ccc(F)cc32)c1C [sunitinib] + CC(C)(C)c1cnc(CSc2cnc(NC(=O)C3CCNCC3)s2)o1 [SNS-032] (first compound 0.4 µM, partner dose 0.01 µM) | 198 | 162 | 80.1 | 106 | 427 | 68.5 | 309 | 297 | 103 |
| CN(c1ncccc1CNc1nc(Nc2ccc3c(c2)CC(=O)N3)ncc1C(F)(F)F)S(C)(=O)=O + O=C(O)c1ccc(-c2c[nH]c3ncc(-c4ccccc4)cc23)cc1C1CCCC1 [GSK650394] (first compound 0.08 µM, partner dose 0.16 µM) | 179 | 48.8 | 96 | 142 | 21.9 | 216 | 49 | 220 | 146 |

Complete entries, quoted from the list. Values in the order: cleaved PARP positive nuclei fraction (COLO792) [%] | cleaved PARP positive nuclei fraction (COLO800) [%] | cleaved PARP positive nuclei fraction (COLO829) [%] | cleaved PARP positive nuclei fraction (G361) [%] | cleaved PARP positive nuclei fraction (IPC-298) [%] | cleaved PARP positive nuclei fraction (IST-MEL1) [%] | cleaved PARP positive nuclei fraction (LB2518-MEL) [%] | cleaved PARP positive nuclei fraction (LOXIMVI) [%] | cleaved PARP positive nuclei fraction (MEL-HO) [%]
CN(c1ncccc1CNc1nc(Nc2ccc3c(c2)CC(=O)N3)ncc1C(F)(F)F)S(C)(=O)=O + CN(C)S(=O)(=O)c1ccc2c(c1)/C(=C/c1cc3c([nH]1)CCCC3)C(=O)N2 [SU6656] (first compound 0.08 µM, partner dose 0.4 µM) is entered as 122 | 27.3 | 267 | 66.2 | 100 | 105 | 232 | 89.7 | 255
CC1(C)CCC(c2ccc(Cl)cc2)=C(CN2CCN(c3ccc(C(=O)NS(=O)(=O)c4ccc(N[C@H](CCN5CCOCC5)CSc5ccccc5)c(S(=O)(=O)C(F)(F)F)c4)cc3)CC2)C1 + O=C(O)c1ccc(-c2c[nH]c3ncc(-c4ccccc4)cc23)cc1C1CCCC1 [GSK650394] (first compound 0.4 µM, partner dose 0.16 µM) is entered as 792 | 87.1 | 57.9 | 68.6 | 44.1 | 130 | 111 | 92.3 | 79
